Measurements as given in US20160041153.
Results from cells or extracts need not show a direct contact.

Sequences of proteins named here, by UniProt entry; tags and fusion partners are left off. Residues count along the entry.
UniProt P16422, 24-314: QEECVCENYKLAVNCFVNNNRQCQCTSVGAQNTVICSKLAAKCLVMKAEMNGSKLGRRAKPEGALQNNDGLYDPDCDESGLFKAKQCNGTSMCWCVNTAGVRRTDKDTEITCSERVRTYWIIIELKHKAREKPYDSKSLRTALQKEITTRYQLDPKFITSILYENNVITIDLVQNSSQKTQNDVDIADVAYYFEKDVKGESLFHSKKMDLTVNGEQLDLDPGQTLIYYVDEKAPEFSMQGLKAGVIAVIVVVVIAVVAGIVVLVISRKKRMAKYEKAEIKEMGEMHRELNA

Molecular target: EpCAM (UniProt P16422)
Assay: binding assay
Conditions: bead-captured plasma microvesicles from prostate cancer and normal samples, SAPE-labelled aptamer as detector, MFI readout; protein on the cell surface; label: biotin (bound to streptavidin-phycoerythrin); single-stranded DNA

“CCCCCCGAATCACATGACTTGGGCGGGGGTCG [EpCAM Aptamer 4]”: binds.
